# Measured values: the supplement of paper PMC8728848
# This is one part of the list.
# B1: BabA (Helicobacter pylori), O52269_HELPY (protein)
# chain: AEDDGFYMSAGYQIGEAAQMVKNTKGIQELSDNYENLSNLLTRYSTLNTLIKLSADPSAVNAARENLGASAKNLIGDTKNSPAYQAVLLAINAAVGFWNVVGYVTQCGGNANGQKSTSSTTIFNNEPGYRSTSITCSLNGHMPGYYGPMSIENFKKLNEAYQILQTALKNGLPALKENNGTVNVTYSYTCSGEGNDNCSLQTTGVTNQNNGTKTETQTIDGKSVTTTISSKVVDSQ
# What was measured:
# Assay in all cases: glycan array binding signal (z-score within array); higher = stronger binding
# Conditions in all cases: glycan notation: IUPAC condensed, linker removed
# [1] = target: Neu5Ac(a2-6)Gal(b1-4)GlcNAc6S
# How it was run: (§1)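 The binding signal is a Z-score computed within each array. Data were drawn from 3228 arrays in the Consortium for Functional Glycomics database, restricted to those with a known protein sequence. Scores were averaged over arrays of the same protein sequence at different concentrations or buffers, and over linkers, and negative values can be taken as non-binding.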
# Neu5Ac(a2-6)GalNAc = target: Neu5Ac(a2-6)GalNAc
# How it was run: as §1
# [2] = target: Neu5Ac(a2-6)GalNAc(b1-4)GlcNAc
# How it was run: as §1
# [3] = target: Neu5Ac(a2-6)GalNAc(b1-4)GlcNAc6S
# How it was run: as §1
# [4] = target: Neu5Ac(a2-6)GlcNAc(b1-4)GlcNAc
# How it was run: as §1
# [5] = target: Neu5Ac(a2-6)GlcNAc(b1-4)GlcNAc(b1-4)GlcNAc
# How it was run: as §1
# Neu5Ac(a2-8)Neu5Ac = target: Neu5Ac(a2-8)Neu5Ac
# How it was run: as §1
# [6] = target: Neu5Ac(a2-8)Neu5Ac(a2-3)Gal(b1-3)GalNAc(b1-4)[Neu5Ac(a2-3)]Gal(b1-4)Glc
# How it was run: as §1
# [7] = target: Neu5Ac(a2-8)Neu5Ac(a2-3)Gal(b1-3)GalNAc(b1-4)[Neu5Ac(a2-8)Neu5Ac(a2-3)]Gal(b1-4)Glc
# How it was run: as §1
# [8] = target: Neu5Ac(a2-8)Neu5Ac(a2-3)Gal(b1-4)Glc
# How it was run: as §1
# [9] = target: Neu5Ac(a2-8)Neu5Ac(a2-3)Gal(b1-4)GlcNAc
# How it was run: as §1
# [10] = target: Neu5Ac(a2-8)Neu5Ac(a2-3)[Gal(b1-3)GalNAc(b1-4)]Gal(b1-4)Glc
# How it was run: as §1
# [11] = target: Neu5Ac(a2-8)Neu5Ac(a2-3)[GalNAc(b1-4)]Gal(b1-4)Glc
# How it was run: as §1
# [12] = target: Neu5Ac(a2-8)Neu5Ac(a2-8)Neu5Ac
# How it was run: as §1
# [13] = target: Neu5Ac(a2-8)Neu5Ac(a2-8)Neu5Ac(a2-3)Gal(b1-4)Glc
# How it was run: as §1
# [14] = target: Neu5Ac(a2-8)Neu5Ac(a2-8)Neu5Ac(a2-3)[Gal(b1-3)GalNAc(b1-4)]Gal(b1-4)Glc
# How it was run: as §1
# [15] = target: Neu5Ac(a2-8)Neu5Ac(a2-8)Neu5Ac(a2-3)[GalNAc(b1-4)]Gal(b1-4)Glc
# How it was run: as §1
# [16] = target: Neu5Ac(a2-8)Neu5Ac(a2-8)Neu5Ac(a2-8)Neu5Ac(a2-3)[GalNAc(b1-4)]Gal(b1-4)Glc
# How it was run: as §1
# [17] = target: Neu5Ac(a2-8)Neu5Gc(a2-3)Gal(b1-4)GlcNAc
# How it was run: as §1
# [18] = target: Neu5Ac(b2-6)Gal(b1-4)GlcNAc
# How it was run: as §1
# Neu5Ac(b2-6)GalNAc = target: Neu5Ac(b2-6)GalNAc
# How it was run: as §1
# [19] = target: Neu5Ac9Ac(a2-3)Gal(b1-3)GlcNAc
# How it was run: as §1
# [20] = target: Neu5Ac9Ac(a2-3)Gal(b1-4)GlcNAc
# How it was run: as §1
# [21] = target: Neu5Ac9Ac(a2-6)Gal(b1-4)GlcNAc
# How it was run: as §1
# [22] = target: Neu5Gc(a2-3)Gal(b1-3)GlcNAc
# How it was run: as §1
# [23] = target: Neu5Gc(a2-3)Gal(b1-3)[Fuc(a1-4)]GlcNAc
# How it was run: as §1
# Neu5Gc(a2-3)Gal(b1-4)Glc = target: Neu5Gc(a2-3)Gal(b1-4)Glc
# How it was run: as §1
# [24] = target: Neu5Gc(a2-3)Gal(b1-4)GlcNAc
# How it was run: as §1
# [25] = target: Neu5Gc(a2-3)Gal(b1-4)GlcNAc(b1-3)Gal(b1-4)GlcNAc(b1-2)Man(a1-3)[Neu5Gc(a2-3)Gal(b1-4)GlcNAc(b1-3)Gal(b1-4)GlcNAc(b1-2)Man(a1-6)]Man(b1-4)GlcNAc(b1-4)GlcNAc
# How it was run: as §1
# [26] = target: Neu5Gc(a2-3)Gal(b1-4)[Fuc(a1-3)]GlcNAc
# How it was run: as §1
# [27] = target: Neu5Gc(a2-6)Gal(b1-4)GlcNAc
# How it was run: as §1
# Neu5Gc(a2-6)GalNAc = target: Neu5Gc(a2-6)GalNAc
# How it was run: as §1
# [28] = target: Neu5Gc(a2-8)Neu5Ac(a2-3)Gal(b1-4)GlcNAc
# How it was run: as §1
# [29] = target: Neu5Gc(a2-8)Neu5Gc(a2-3)Gal(b1-4)GlcNAc
# How it was run: as §1
# [30] = target: Neu5Gc(a2-8)Neu5Gc(a2-3)Gal(b1-4)GlcNAc(b1-3)Gal(b1-4)GlcNAc
# How it was run: as §1
# [31] = target: Neu5Gc(a2-8)Neu5Gc(a2-6)Gal(b1-4)GlcNAc
# How it was run: as §1
# [32] = target: Neu5Gc(b2-6)Gal(b1-4)GlcNAc
# How it was run: as §1
binder,measurement,setting,value
B1,glycan array binding signal (z-score),[1],-0.106
same,glycan array binding signal (z-score),Neu5Ac(a2-6)GalNAc,0.571
same,glycan array binding signal (z-score),[2],-0.673
same,glycan array binding signal (z-score),[3],-0.637
same,glycan array binding signal (z-score),[4],-0.284
same,glycan array binding signal (z-score),[5],0.529
same,glycan array binding signal (z-score),Neu5Ac(a2-8)Neu5Ac,-0.103
same,glycan array binding signal (z-score),[6],-0.518
same,glycan array binding signal (z-score),[7],0.235
same,glycan array binding signal (z-score),[8],0.012
same,glycan array binding signal (z-score),[9],-0.8
same,glycan array binding signal (z-score),[10],-0.246
same,glycan array binding signal (z-score),[11],-0.258
same,glycan array binding signal (z-score),[12],-0.163
same,glycan array binding signal (z-score),[13],-0.593
same,glycan array binding signal (z-score),[14],0.344
same,glycan array binding signal (z-score),[15],-0.552
same,glycan array binding signal (z-score),[16],-0.397
same,glycan array binding signal (z-score),[17],-0.845
same,glycan array binding signal (z-score),[18],-0.719
same,glycan array binding signal (z-score),Neu5Ac(b2-6)GalNAc,-0.626
same,glycan array binding signal (z-score),[19],-0.068
same,glycan array binding signal (z-score),[20],0.252
same,glycan array binding signal (z-score),[21],-0.224
same,glycan array binding signal (z-score),[22],0.13
same,glycan array binding signal (z-score),[23],-0.638
same,glycan array binding signal (z-score),Neu5Gc(a2-3)Gal(b1-4)Glc,-0.204
same,glycan array binding signal (z-score),[24],0.094
same,glycan array binding signal (z-score),[25],1.27
same,glycan array binding signal (z-score),[26],-0.235
same,glycan array binding signal (z-score),[27],-0.144
same,glycan array binding signal (z-score),Neu5Gc(a2-6)GalNAc,0.164
same,glycan array binding signal (z-score),[28],-0.773
same,glycan array binding signal (z-score),[29],-0.709
same,glycan array binding signal (z-score),[30],-0.736
same,glycan array binding signal (z-score),[31],-0.546
same,glycan array binding signal (z-score),[32],-0.522

# 2 records picked at random from the list so far:
binder,measurement,setting,value
B1,glycan array binding signal (z-score),[5],0.529
same,glycan array binding signal (z-score),[18],-0.719
